Measurements as given in PubChem BioAssay AID192 (DTP/NCI, 2004).
The list is a part of this screen's results and no random one: it gathers tests that were run many times, whatever their T/C, doses with no T/C, and many T/C values between a quarter and a half above the control. Further doses and runs are listed elsewhere. T/C is the treated group as % of the vehicle group. Some entries give survivors of the animals treated and no T/C: the source files T/C as zero there, which appears to mark a toxic dose or a test without result, not a measured value. Some doses without a T/C left all or most animals alive at the check, yet need not have been tolerated: survival well below the control is almost never listed, so the zero probably covers shortened survival too. Counts of survivors are from the toxicity check (mostly the fifth day) where no day follows; animals may have died later. Schedules are NCI's codes, read here as Q, the interval in days (D) or hours (H), X, the number of doses. Signs of the kind (2×) give the number of equal values in this list. Some entries hold several experiments; the values are given in rising order. Where survival is the endpoint, this PubChem deposit counts one and a half times the control or more as active, and values a quarter to a half above the control carry no call in these data; other NCI protocols may use other cut-offs. Some T/C values are followed by the survivors on the day toxicity was checked, most often the fifth; where none is given, no animal had died by that day. Numbered stars: 1 amine (or outer) side, 2 acyl side, 3 side chain; on linkers, the order of the positions; unused ones are H or OH. Bridge positions count the residues as written; N and C are the ends. Square brackets hold non-standard residues; d marks the D form. Peptide text beside a SMILES is read from it. I, II: the chains in the order shown. * marks the point of attachment. ξ: configuration not given here. Actinocin(1to9) = Cc1c2oc3c(C)ccc(C(=O)[*:2])c3nc-2c(C(=O)[*:1])c(N)c1=O; NMeV = CN[CH](C(=O)O)C(C)C; Cbz = O=C(OCc1ccccc1)*; ξV = CC(C)C(N)C(=O)O; Sar = CNCC(=O)O

System: BDF1 mice, B16 melanoma ip, median survival T/C
Experiment: NCI In Vivo Anticancer Drug Screen. Data for tumor model B16 Melanoma (intraperitoneal) in B6D2F1 (BDF1) mice
Conditions: T/C endpoint: median survival time, higher T/C = longer survival
Outline: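 Each result divides a survival or tumor-size measurement in the compound-treated group by the same measurement in the vehicle group.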

[1] = dose: 50.0 mg/kg/injection, schedule: Q01DX009 (ip), vehicle: Klucel (hydroxypropylcellulose) (HPC)
[2] = dose: 50.0 mg/kg/injection, schedule: Q01DX009 (ip), vehicle: saline
[3] = dose: 100.0 mg/kg/injection, schedule: Q01DX009 (ip), vehicle: Klucel (hydroxypropylcellulose) (HPC)
[4] = dose: 100.0 mg/kg/injection, schedule: Q01DX009 (ip), vehicle: saline
[5] = dose: 200.0 mg/kg/injection, schedule: Q01DX009 (ip), vehicle: Klucel (hydroxypropylcellulose) (HPC)
[6] = dose: 200.0 mg/kg/injection, schedule: Q01DX009 (ip), vehicle: saline
[7] = dose: 400.0 mg/kg/injection, schedule: Q01DX009 (ip), vehicle: saline
[8] = dose: 400.0 mg/kg/injection, schedule: Q01DX009 (ip), vehicle: Klucel (hydroxypropylcellulose) (HPC)
[9] = dose: 100.0 mg/kg/injection, schedule: Q04DX003 (ip), vehicle: saline with Tween-80
[10] = dose: 200.0 mg/kg/injection, schedule: Q01DX009 (ip), vehicle: saline with Tween-80
[11] = dose: 400.0 mg/kg/injection, schedule: Q01DX009 (ip), vehicle: saline with Tween-80
[12] = dose: 50.0 mg/kg/injection, schedule: Q01DX009 (ip), vehicle: saline with Tween-80
[13] = dose: 400.0 mg/kg/injection, schedule: Q04DX003 (ip), vehicle: saline with Tween-80

C=C1C(=O)OC2C1CCC(=C)C1CC(O)C(=C)C12 (configuration not stated)
survivor count (dose: 150.0 mg/kg/injection, schedule: Q01DX009 (ip), vehicle: saline with Tween-80): 10 of 10 | survivor count (dose: 225.0 mg/kg/injection, schedule: Q01DX009 (ip), vehicle: saline with Tween-80): 4 of 10

Cc1cc2nc3ccc(N)cc3oc-2cc1=[N+](C)C
T/C (dose: 25.0 mg/kg/injection, schedule: Q01DX009 (ip), vehicle: saline): 130 % of control | survivor count [1]: 6 of 10 | T/C [2]: 147 % of control [9 of 10 alive] | survivor count [3]: 0 of 10 | survivor count [4]: 9 of 10 | survivor count [5]: 0 of 10 | survivor count [6]: 0 of 10

CC(=N/NC(N)=S)/C(C)=N/NC(N)=S
T/C [7]: 126 % of control

O=C(CCc1ccc(O)cc1)c1c(O)cc(O)cc1O
survivor count (dose: 200.0 mg/kg/injection, schedule: Q01DX009 (ip), vehicle: saline + alcohol): 0 of 10

O=NN(CCF)C(=O)NCCO
T/C (dose: 7.5 mg/kg/injection, schedule: Q01DX001 (ip), vehicle: saline): 129 % of control

CCCN(CCC)CC(C)=O
survivor count (dose: 400.0 mg/kg/injection, schedule: Q04DX003 (ip), vehicle: Klucel (hydroxypropylcellulose) (HPC)): 0 of 10

CN(CCO)/N=N/c1nc[nH]c1C(N)=O
T/C (dose: 100.0 mg/kg/injection, schedule: Q01DX009 (ip), vehicle: carboxymethylcellulose (CMC)): 135 % of control | survivor count (dose: 200.0 mg/kg/injection, schedule: Q01DX009 (ip), vehicle: carboxymethylcellulose (CMC)): 5 of 6 | survivor count (dose: 400.0 mg/kg/injection, schedule: Q01DX009 (ip), vehicle: carboxymethylcellulose (CMC)): 5 of 6 | survivor count (dose: 800.0 mg/kg/injection, schedule: Q01DX009 (ip), vehicle: carboxymethylcellulose (CMC)): 2 of 6

CCCCCCCCCCCCCCCCCCNC(=O)N(CC)c1ccccc1
survivor count [3]: 10 of 10 | survivor count [5]: 10 of 10 | survivor count [8]: 10 of 10

C/C=C1\CN(C)[C@H]2Cc3c([nH]c4ccccc34)[C@@H](c3cc4[nH]c5c(c4cc3OC)CCN3C[C@H]4C[C@H](CC)[C@H]3[C@@]5(C(=O)OC)C4)C[C@H]1C2C(=O)OC (some centres not stated)
survivor count (dose: 50.0 mg/kg/injection, schedule: Q04DX003 (ip), vehicle: saline with Tween-80): 10 of 10 | survivor count [9]: 10 of 10 | survivor count [10]: 6 of 6 | survivor count [11]: 4 of 6

CC(C)=CC(=O)OC1C2C(C)C(=O)OC2C(O)C(C)C2C=CC(=O)C21C (configuration not stated)
survivor count [1]: 10 of 10 | survivor count [12]: 10 of 12 | survivor count [3]: 7 of 10

CCC(C)C1NC(=O)C(NC(=O)c2c3nc4c(C(=O)NC5C(=O)NC(C(C)CC)C(=O)N6CCCC6C(=O)N(C)CC(=O)N(C)C(C(C)C)C(=O)OC5C)ccc(C)c4oc-3c(C)c(=O)c2N)C(C)OC(=O)C(C(C)C)N(C)C(=O)CN(C)C(=O)C2CCCN2C1=O (configuration not stated) (I: TIP[Sar][NMeV] / II: TIP[Sar][NMeV]; ester I:1-I:C, II:1-II:C; linker I:N-II:N via Actinocin(1to9); configuration not given here)
survivor count (dose: 1.6 mg/kg/injection, schedule: Q01DX001 (ip), vehicle: water): 5 of 10 | T/C (dose: 50.0 micrograms/kg/injection, schedule: Q01DX009 (ip), vehicle: water): 136 % of control | survivor count (dose: 100.0 micrograms/kg/injection, schedule: Q01DX009 (ip), vehicle: water): 10 of 10 | T/C (dose: 300.0 micrograms/kg/injection, schedule: Q04DX003 (ip), vehicle: water): 125 % of control | survivor count (dose: 600.0 micrograms/kg/injection, schedule: Q04DX003 (ip), vehicle: water): 10 of 10

O=C(CCBr)N1CCN(C(=O)CCBr)CC1
T/C (dose: 40.0 mg/kg/injection, schedule: Q01DX009 (ip), vehicle: saline): 126 % of control (2×) | T/C (dose: 80.0 mg/kg/injection, schedule: Q01DX009 (ip), vehicle: saline with Tween-80): 136 % of control | survivor count (dose: 80.0 mg/kg/injection, schedule: Q01DX009 (ip), vehicle: saline): 10 of 10

CC1(C)SC(C(NC(=O)Cc2ccccc2)C(=O)O)NC1C(=O)O (configuration not stated)
survivor count [11]: 10 of 10

O=S(=O)(c1ccc(NC(=S)N/N=C/c2ccccc2O)cc1)N1CCCCC1
survivor count (dose: 12.5 mg/kg/injection, schedule: Q01DX009 (ip), vehicle: olive oil, sesame oil, peanut oil): 9 of 10 and 10 of 10 | survivor count (dose: 25.0 mg/kg/injection, schedule: Q01DX009 (ip), vehicle: olive oil, sesame oil, peanut oil): 10 of 10 | survivor count (dose: 50.0 mg/kg/injection, schedule: Q01DX009 (ip), vehicle: olive oil, sesame oil, peanut oil): 10 of 10 | survivor count (dose: 100.0 mg/kg/injection, schedule: Q01DX009 (ip), vehicle: olive oil, sesame oil, peanut oil): 10 of 10 (2×) | survivor count (dose: 200.0 mg/kg/injection, schedule: Q01DX009 (ip), vehicle: olive oil, sesame oil, peanut oil): 9 of 10 and 10 of 10 | survivor count (dose: 400.0 mg/kg/injection, schedule: Q01DX009 (ip), vehicle: olive oil, sesame oil, peanut oil): 6 of 10 and 10 of 10

C[N+](C)(C)C.N=C=O.N=C=O.N=C=O.N=C=O.[Co+2]
survivor count [9]: 1 of 10 | survivor count (dose: 200.0 mg/kg/injection, schedule: Q04DX003 (ip), vehicle: saline with Tween-80): 1 of 10 | survivor count [13]: 0 of 10

Clc1ccc2c(c1)C(=P(c1ccccc1)(c1ccccc1)c1ccccc1)c1cc(Cl)cc(Cl)c1-2
survivor count [11]: 6 of 6 | survivor count (dose: 800.0 mg/kg/injection, schedule: Q01DX009 (ip), vehicle: saline with Tween-80): 6 of 6

CC(Cc1ccccc1)NCCc1c2ccccc2nc2ccccc12 (configuration not stated)
survivor count (dose: 12.5 mg/kg/injection, schedule: Q01DX009 (ip), vehicle: Klucel (hydroxypropylcellulose) (HPC)): 10 of 10 | survivor count [3]: 8 of 10 and 10 of 10 | survivor count [5]: 8 of 10

CC1=CC(=O)c2ccccc2C1=O
T/C (dose: 3.12 mg/kg/injection, schedule: Q01DX009 (ip), vehicle: saline with Tween-80): 137 % of control | T/C (dose: 6.25 mg/kg/injection, schedule: Q01DX009 (ip), vehicle: saline with Tween-80): 130 % of control | T/C (dose: 12.5 mg/kg/injection, schedule: Q01DX009 (ip), vehicle: saline with Tween-80): 131 % of control | survivor count [12]: 8 of 10 | survivor count (dose: 100.0 mg/kg/injection, schedule: Q01DX009 (ip), vehicle: saline with Tween-80): 0 of 10 | survivor count [10]: 0 of 10

C[N+](C)(C)CCCC1C2CCC(C2)C1C[N+](C)(C)C (configuration not stated)
survivor count [2]: 0 of 10

NC(=O)c1ncc[nH]c1=O
survivor count [6]: 3 of 10

CC(C)C(NC(=O)CN(C)C(=O)OCc1ccccc1)C(=O)O (configuration not stated) (Cbz-[Sar]-[ξV]-OH)
survivor count [4]: 4 of 10 | survivor count [6]: 0 of 10 | survivor count [7]: 0 of 10

CC(=O)N(NC(C)C)C(C)C
survivor count [4]: 9 of 10

CNC(=O)Nc1ccc(Cl)cc1C
survivor count [5]: 10 of 10 | survivor count [8]: 5 of 10

CC1=CC(=O)C(CO)=CC1=O
survivor count (dose: 0.75 mg/kg/injection, schedule: Q01DX009 (ip), vehicle: saline with Tween-80): 10 of 10 | survivor count (dose: 1.5 mg/kg/injection, schedule: Q01DX009 (ip), vehicle: saline with Tween-80): 10 of 10 | survivor count (dose: 3.0 mg/kg/injection, schedule: Q01DX009 (ip), vehicle: saline with Tween-80): 10 of 10 | survivor count (dose: 6.0 mg/kg/injection, schedule: Q01DX009 (ip), vehicle: saline with Tween-80): 10 of 10

CC(C)=Cc1ccccc1
survivor count [11]: 9 of 10 | survivor count [13]: 10 of 10

CCN(CC)CCOC(=O)Cc1cccc2c(=O)cc(-c3ccccc3)oc12
T/C [4]: 135 % of control | survivor count [6]: 9 of 10
